This passage reports binding results from paper doi:10.1101/2025.05.27.25328314.

Sequences of proteins named here, by UniProt entry; tags and fusion partners are left off. Residues count along the entry.
UniProt Q9UBS5, residues 20-961: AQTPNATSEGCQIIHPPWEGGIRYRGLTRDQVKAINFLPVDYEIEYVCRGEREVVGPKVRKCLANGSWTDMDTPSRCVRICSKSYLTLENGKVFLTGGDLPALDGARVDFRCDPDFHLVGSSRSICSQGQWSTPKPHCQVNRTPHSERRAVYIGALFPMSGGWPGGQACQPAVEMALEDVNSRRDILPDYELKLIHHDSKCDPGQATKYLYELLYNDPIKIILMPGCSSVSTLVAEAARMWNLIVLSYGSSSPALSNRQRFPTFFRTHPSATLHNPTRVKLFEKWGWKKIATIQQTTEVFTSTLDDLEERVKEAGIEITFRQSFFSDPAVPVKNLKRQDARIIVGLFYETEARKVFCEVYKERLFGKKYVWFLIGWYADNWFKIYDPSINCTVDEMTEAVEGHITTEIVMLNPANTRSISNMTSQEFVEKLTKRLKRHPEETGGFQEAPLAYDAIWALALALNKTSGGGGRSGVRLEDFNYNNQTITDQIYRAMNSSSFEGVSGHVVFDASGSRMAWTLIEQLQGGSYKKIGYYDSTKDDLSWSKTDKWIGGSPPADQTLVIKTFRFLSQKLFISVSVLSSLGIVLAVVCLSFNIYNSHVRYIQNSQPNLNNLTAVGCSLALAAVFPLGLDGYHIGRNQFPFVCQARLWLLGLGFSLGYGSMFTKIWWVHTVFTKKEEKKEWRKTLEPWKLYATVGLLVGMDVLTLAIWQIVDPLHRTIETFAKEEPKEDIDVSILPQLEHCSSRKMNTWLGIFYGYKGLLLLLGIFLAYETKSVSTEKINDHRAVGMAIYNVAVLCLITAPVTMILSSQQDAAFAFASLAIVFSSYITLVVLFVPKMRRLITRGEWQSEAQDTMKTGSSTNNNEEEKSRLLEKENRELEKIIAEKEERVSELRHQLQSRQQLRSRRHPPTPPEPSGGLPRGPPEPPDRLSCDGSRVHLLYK

This assay deals with T1, extracellular Ca2+-sensing receptor (CaSR) (human (endogenous in parathyroid tissue)) (UniProt P41180).
T1 sequence: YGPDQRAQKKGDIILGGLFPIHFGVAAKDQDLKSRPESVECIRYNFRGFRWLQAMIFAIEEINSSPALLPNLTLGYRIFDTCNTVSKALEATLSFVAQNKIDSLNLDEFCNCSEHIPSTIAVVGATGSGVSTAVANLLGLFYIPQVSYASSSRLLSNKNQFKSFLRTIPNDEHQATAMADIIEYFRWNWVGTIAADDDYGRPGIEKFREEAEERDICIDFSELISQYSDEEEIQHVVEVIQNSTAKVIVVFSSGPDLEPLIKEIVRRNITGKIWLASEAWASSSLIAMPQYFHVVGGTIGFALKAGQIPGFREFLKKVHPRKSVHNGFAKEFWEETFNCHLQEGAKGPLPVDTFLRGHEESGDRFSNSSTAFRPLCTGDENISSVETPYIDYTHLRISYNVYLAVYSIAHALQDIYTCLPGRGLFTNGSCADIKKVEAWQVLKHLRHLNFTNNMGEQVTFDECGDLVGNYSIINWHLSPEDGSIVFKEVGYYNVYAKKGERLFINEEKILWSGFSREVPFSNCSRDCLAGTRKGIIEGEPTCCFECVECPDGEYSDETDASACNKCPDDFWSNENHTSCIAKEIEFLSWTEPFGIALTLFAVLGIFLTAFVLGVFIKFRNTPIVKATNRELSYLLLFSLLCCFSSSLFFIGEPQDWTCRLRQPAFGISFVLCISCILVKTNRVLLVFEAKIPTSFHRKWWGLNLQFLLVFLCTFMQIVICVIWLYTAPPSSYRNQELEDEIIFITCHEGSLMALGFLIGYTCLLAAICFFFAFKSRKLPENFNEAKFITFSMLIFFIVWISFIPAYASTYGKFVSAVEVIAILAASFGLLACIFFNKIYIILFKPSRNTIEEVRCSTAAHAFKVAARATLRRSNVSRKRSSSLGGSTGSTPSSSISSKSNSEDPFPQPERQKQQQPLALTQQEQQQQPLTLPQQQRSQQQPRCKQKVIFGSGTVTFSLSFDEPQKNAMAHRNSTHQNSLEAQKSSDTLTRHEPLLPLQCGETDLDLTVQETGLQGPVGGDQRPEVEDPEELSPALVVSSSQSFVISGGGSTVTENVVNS
Put plainly: proximity ligation; deparaffinized sections of human parathyroid glands (normal donors) and parathyroid adenomas (PHPT patients with deficient or replete 25OHD); mouse monoclonal anti-GABAB1R N-terminus and rabbit polyclonal anti-CaSR N-terminus, Duolink in Situ Detection kit, Texas Red probes.

No constants are given. Whether binding was seen depends on the method and setting. Binding seen in cells or lysates may run through a third protein. Some results given as binding are weak or reduced against the parent protein; the word gives no strength.

On to “type B γ-aminobutyric acid receptor 1 (GABAB1R) (from UniProt Q9UBS5 20-961)”, for which the binding entry is “binds”.
